Test results from article PMC9132426.
Construct, isoform or probe ends are uncertain for at least one entry. A weaker result is weaker than the reference pair of the same experiment. At least one verdict rests on a figure or table, not on a statement of the authors. Protein sequences can lack the tags named with them.

Biological target: T1, human DNA topoisomerase IB (htop1), Prospec ENZ-306 (human) (UniProt P11387)
T1 sequence (looked up, limits assumed): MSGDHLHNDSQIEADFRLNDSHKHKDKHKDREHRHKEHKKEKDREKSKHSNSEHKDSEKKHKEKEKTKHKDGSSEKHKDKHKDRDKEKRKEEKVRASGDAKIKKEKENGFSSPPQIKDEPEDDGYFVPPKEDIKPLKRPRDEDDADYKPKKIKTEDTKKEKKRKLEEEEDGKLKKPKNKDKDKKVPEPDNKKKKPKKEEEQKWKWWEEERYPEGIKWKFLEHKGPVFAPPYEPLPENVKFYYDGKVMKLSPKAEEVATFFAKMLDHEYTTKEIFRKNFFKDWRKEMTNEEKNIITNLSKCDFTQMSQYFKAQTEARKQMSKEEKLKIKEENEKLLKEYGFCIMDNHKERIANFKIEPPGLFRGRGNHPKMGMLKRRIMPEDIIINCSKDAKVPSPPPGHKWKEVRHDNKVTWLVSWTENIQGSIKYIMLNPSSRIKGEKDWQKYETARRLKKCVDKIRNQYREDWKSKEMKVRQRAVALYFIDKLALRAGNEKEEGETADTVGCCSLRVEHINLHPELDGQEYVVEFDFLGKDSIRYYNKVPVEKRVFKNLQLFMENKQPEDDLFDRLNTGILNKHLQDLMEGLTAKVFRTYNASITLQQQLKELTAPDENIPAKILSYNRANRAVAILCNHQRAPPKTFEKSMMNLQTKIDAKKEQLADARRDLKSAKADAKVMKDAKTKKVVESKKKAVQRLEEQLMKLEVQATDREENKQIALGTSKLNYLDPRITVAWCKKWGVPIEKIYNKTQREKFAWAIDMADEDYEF
Test: covalent suicide complex (cleavage, denaturing PAGE after trypsin)
Conditions: 5' phosphate on CP25, commercial protein

**Q.** Does “GAAAAAAGACTTAG / TAAAAATTTTTCTAAGTCTTTTTTC [suicide substrate SS (CL14-FITC/CP25-P)]” bind (100 uM membranoid G pre-incubated, cleavage inhibited)?
**A.** Result: binds more weakly

**Q.** Does “GAAAAAAGACTTAG / TAAAAATTTTTCTAAGTCTTTTTTC [suicide substrate SS (CL14-FITC/CP25-P)]” bind (DMSO, no membranoid G)?
**A.** Result: binds
